PubChem BioAssay AID602196 | INSERM | 2012

- Purpose: 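Knock-downs that protect lung cancer cells from cisplatin or sensitise them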
- Cell system: human A549 lung cancer cells
- Reagents: siRNA pair against human genes
- Time to read-out: 48 h transfection before cisplatin; time from cisplatin to read-out not stated
- Challenge: cisplatin at a dose killing half of control-siRNA cells; exact dose and duration not given
- Measurement: 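Shift in cisplatin death relative to control siRNA, from -50 (all cells die) to +50 (no cells die); siRNAs harmful on their own scored 0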
- Reading the numbers: two-siRNA summed score (-2 to +2): higher = both siRNAs protect from cisplatin killing; -2 means both sensitise; mean protection from cisplatin (shift in death): higher = protection from cisplatin killing
- Rule for the call: 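siRNAs harmful alone (LDH or WST-1) get 0; others get +1 for less and -1 for more cisplatin killing; genes are active when the two siRNAs give the same sign, summing to ±2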
- Calls: active = both siRNAs shift cisplatin killing the same way; inactive = no consistent shift, or siRNA harmful alone
The whole screen tested about 23,000 reagents; below is a random part of them. 455 of all reagents (2%) were called active. 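Active includes both protection and sensitisation; some change values fall well beyond the stated -50 to +50 range.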 Not all columns of the deposit are shown. Not stated in the record: the amount of reagent.

After knock-down of LOC441529, the record shows two-siRNA summed score (-2 to +2) = 0; mean protection from cisplatin (shift in death) (%) = 9.9; inactive.
Depletion of LINC01116 resulted in: two-siRNA summed score (-2 to +2) = 1; mean protection from cisplatin (shift in death) (%) = 17.6; inactive.
FOXD3 gave two-siRNA summed score (-2 to +2) = 0; mean protection from cisplatin (shift in death) (%) = 3.2; inactive.
Silencing of WDR5B came out at: two-siRNA summed score (-2 to +2) = 0; mean protection from cisplatin (shift in death) (%) = 3.6; inactive.
Knock-down of SLC41A3 resulted in: two-siRNA summed score (-2 to +2) = 1; mean protection from cisplatin (shift in death) (%) = 7.2; inactive.
For SRPX2 the deposit lists two-siRNA summed score (-2 to +2) = 0; mean protection from cisplatin (shift in death) (%) = 4.8; inactive.
For ADRB1 the deposit lists two-siRNA summed score (-2 to +2) = -1; mean protection from cisplatin (shift in death) (%) = -8.9; inactive.
For SMG9, the values are two-siRNA summed score (-2 to +2) = 1; mean protection from cisplatin (shift in death) (%) = 8; inactive.
With knock-down of ABO the results were two-siRNA summed score (-2 to +2) = 0; mean protection from cisplatin (shift in death) (%) = -3.9; inactive.
After knock-down of MIR1-1HG, the record shows two-siRNA summed score (-2 to +2) = 0; mean protection from cisplatin (shift in death) (%) = 13.3; inactive.

An excerpt from above, reduced to “two-siRNA summed score (-2 to +2)”:
SRPX2	0
ADRB1	-1

Next results follow.
After knock-down of PDSS2, the record shows two-siRNA summed score (-2 to +2) = 0; mean protection from cisplatin (shift in death) (%) = 7.4; inactive.
Against CCDC126, the values are two-siRNA summed score (-2 to +2) = 0; mean protection from cisplatin (shift in death) (%) = 3.3; inactive.
For TIMP4, the values are two-siRNA summed score (-2 to +2) = 0; mean protection from cisplatin (shift in death) (%) = 3.3; inactive.
Knock-down of TEX56P came out at: two-siRNA summed score (-2 to +2) = 2; mean protection from cisplatin (shift in death) (%) = 18.6; active.
PLA2G15 gave two-siRNA summed score (-2 to +2) = 0; mean protection from cisplatin (shift in death) (%) = -2.2; inactive.
For THEM4 the deposit lists two-siRNA summed score (-2 to +2) = 0; mean protection from cisplatin (shift in death) (%) = 0.1; inactive.
RABL2B gave two-siRNA summed score (-2 to +2) = 0; mean protection from cisplatin (shift in death) (%) = -17.1; inactive.
Knock-down of CADM4 gave: two-siRNA summed score (-2 to +2) = 0; mean protection from cisplatin (shift in death) (%) = 8.2; inactive.
Knock-down of LOC107985476 resulted in: two-siRNA summed score (-2 to +2) = 0; mean protection from cisplatin (shift in death) (%) = -9.4; inactive.
Depletion of LOC440583 resulted in: two-siRNA summed score (-2 to +2) = 1; mean protection from cisplatin (shift in death) (%) = 6.7; inactive.
For LOC442280 the deposit lists two-siRNA summed score (-2 to +2) = 1; mean protection from cisplatin (shift in death) (%) = 2.8; inactive.
